Here are results for 40 targets from the supplement of paper PMC7666118.

Protein sequences, listed by entry. Tags and fused reporters are not part of them. Lines headed by an entry give the natural chain unless they say otherwise; changes in a name come on top.
UniProt Q9NYF3: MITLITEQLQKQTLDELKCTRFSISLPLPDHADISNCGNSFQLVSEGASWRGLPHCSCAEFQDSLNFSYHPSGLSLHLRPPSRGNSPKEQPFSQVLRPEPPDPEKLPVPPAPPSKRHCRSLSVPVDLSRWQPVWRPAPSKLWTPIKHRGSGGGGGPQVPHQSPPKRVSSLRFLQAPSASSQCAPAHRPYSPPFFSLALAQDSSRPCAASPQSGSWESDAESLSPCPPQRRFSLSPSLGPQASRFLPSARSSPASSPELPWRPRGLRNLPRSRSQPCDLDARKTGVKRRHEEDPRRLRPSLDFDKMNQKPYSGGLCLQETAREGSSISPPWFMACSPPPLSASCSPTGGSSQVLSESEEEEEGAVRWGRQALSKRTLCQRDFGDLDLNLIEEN
UniProt Q9NVI1: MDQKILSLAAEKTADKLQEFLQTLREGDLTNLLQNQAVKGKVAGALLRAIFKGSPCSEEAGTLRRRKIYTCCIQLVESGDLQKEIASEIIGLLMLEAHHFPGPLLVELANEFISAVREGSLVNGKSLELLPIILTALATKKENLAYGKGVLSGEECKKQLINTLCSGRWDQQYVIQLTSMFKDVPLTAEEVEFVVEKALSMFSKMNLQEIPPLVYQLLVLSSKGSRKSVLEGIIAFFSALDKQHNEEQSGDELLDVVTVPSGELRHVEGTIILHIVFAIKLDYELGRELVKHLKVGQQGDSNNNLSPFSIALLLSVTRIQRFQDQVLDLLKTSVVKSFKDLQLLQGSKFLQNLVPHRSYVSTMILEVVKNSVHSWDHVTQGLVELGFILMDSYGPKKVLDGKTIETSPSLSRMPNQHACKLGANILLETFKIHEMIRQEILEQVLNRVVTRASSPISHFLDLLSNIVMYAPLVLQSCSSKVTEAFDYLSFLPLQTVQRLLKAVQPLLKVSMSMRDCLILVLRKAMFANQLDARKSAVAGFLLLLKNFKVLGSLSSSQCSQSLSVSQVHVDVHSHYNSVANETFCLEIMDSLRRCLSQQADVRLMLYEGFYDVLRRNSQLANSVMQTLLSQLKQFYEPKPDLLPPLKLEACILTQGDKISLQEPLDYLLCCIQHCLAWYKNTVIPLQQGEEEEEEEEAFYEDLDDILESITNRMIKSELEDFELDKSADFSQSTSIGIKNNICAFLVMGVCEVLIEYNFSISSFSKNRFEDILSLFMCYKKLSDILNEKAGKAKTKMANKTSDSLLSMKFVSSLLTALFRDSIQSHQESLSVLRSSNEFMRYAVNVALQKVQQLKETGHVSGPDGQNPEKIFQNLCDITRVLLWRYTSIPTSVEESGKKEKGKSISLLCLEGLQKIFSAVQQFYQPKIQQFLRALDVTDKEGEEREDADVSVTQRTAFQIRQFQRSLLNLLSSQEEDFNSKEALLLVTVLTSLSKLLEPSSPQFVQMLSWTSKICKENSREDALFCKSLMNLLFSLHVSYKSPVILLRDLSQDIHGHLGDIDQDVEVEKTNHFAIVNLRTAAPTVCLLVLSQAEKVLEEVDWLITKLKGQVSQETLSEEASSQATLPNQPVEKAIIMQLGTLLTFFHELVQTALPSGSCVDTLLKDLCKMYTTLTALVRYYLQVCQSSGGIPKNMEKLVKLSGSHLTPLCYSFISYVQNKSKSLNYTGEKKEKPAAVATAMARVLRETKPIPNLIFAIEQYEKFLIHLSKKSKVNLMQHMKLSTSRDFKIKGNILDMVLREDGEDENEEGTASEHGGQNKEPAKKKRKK
UniProt Q14152, whole entry: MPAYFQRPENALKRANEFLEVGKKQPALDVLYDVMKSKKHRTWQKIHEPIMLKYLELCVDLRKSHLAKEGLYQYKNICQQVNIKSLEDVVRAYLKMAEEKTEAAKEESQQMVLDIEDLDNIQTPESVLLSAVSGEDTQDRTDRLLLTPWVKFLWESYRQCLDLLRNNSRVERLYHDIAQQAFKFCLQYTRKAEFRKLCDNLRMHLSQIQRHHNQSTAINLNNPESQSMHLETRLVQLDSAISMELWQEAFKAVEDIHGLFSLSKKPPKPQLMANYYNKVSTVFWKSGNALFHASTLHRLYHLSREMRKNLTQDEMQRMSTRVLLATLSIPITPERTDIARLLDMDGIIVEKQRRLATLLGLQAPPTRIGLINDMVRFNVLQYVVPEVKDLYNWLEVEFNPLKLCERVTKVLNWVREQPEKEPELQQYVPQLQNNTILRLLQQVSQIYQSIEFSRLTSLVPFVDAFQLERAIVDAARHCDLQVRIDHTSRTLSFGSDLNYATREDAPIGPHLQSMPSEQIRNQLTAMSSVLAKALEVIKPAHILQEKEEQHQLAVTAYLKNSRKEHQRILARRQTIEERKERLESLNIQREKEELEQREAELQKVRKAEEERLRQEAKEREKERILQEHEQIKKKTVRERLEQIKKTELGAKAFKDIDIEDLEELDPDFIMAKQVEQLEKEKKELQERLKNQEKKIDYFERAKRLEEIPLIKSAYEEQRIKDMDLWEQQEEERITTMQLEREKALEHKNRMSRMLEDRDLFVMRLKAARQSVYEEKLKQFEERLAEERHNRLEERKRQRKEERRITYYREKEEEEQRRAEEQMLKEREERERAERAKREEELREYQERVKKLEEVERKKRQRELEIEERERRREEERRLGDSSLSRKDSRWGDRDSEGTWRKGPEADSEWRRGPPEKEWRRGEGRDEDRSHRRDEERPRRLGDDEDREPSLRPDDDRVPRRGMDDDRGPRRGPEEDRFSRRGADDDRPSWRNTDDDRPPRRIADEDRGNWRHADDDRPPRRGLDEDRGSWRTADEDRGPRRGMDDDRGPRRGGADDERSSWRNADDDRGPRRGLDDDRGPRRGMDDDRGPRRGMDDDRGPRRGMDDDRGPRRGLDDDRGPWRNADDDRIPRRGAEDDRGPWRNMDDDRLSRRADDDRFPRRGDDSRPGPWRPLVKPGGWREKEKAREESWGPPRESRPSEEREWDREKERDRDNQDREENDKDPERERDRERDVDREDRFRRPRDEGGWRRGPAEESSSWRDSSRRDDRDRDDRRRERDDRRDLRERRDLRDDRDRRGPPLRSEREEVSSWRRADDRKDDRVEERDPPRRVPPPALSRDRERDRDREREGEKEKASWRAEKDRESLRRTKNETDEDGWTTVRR
UniProt Q9UBQ5, whole entry: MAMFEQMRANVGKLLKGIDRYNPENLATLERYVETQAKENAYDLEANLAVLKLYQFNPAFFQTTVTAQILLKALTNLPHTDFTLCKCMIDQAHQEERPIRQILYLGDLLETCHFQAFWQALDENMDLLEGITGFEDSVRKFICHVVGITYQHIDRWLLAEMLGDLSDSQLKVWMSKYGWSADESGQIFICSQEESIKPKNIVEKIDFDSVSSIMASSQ
UniProt P19525: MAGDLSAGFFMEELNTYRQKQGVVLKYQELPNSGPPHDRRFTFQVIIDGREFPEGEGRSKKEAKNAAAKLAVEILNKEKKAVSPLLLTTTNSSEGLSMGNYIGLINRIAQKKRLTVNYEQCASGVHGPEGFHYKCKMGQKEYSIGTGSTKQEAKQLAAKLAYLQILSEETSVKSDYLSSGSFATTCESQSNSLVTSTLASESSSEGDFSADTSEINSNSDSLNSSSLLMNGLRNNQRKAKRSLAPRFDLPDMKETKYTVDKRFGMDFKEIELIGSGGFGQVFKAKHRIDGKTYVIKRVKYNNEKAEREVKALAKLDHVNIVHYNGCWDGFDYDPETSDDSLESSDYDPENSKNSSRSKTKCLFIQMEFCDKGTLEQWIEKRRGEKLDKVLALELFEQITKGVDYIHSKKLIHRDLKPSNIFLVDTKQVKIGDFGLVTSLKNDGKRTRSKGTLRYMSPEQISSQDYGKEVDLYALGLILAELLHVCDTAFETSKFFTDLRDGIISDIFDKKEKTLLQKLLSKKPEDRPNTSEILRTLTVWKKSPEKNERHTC
UniProt P62942, whole entry: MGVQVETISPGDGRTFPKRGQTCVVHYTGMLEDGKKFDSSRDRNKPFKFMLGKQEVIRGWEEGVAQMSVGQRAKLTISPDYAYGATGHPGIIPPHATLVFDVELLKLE
UniProt Q5VW36: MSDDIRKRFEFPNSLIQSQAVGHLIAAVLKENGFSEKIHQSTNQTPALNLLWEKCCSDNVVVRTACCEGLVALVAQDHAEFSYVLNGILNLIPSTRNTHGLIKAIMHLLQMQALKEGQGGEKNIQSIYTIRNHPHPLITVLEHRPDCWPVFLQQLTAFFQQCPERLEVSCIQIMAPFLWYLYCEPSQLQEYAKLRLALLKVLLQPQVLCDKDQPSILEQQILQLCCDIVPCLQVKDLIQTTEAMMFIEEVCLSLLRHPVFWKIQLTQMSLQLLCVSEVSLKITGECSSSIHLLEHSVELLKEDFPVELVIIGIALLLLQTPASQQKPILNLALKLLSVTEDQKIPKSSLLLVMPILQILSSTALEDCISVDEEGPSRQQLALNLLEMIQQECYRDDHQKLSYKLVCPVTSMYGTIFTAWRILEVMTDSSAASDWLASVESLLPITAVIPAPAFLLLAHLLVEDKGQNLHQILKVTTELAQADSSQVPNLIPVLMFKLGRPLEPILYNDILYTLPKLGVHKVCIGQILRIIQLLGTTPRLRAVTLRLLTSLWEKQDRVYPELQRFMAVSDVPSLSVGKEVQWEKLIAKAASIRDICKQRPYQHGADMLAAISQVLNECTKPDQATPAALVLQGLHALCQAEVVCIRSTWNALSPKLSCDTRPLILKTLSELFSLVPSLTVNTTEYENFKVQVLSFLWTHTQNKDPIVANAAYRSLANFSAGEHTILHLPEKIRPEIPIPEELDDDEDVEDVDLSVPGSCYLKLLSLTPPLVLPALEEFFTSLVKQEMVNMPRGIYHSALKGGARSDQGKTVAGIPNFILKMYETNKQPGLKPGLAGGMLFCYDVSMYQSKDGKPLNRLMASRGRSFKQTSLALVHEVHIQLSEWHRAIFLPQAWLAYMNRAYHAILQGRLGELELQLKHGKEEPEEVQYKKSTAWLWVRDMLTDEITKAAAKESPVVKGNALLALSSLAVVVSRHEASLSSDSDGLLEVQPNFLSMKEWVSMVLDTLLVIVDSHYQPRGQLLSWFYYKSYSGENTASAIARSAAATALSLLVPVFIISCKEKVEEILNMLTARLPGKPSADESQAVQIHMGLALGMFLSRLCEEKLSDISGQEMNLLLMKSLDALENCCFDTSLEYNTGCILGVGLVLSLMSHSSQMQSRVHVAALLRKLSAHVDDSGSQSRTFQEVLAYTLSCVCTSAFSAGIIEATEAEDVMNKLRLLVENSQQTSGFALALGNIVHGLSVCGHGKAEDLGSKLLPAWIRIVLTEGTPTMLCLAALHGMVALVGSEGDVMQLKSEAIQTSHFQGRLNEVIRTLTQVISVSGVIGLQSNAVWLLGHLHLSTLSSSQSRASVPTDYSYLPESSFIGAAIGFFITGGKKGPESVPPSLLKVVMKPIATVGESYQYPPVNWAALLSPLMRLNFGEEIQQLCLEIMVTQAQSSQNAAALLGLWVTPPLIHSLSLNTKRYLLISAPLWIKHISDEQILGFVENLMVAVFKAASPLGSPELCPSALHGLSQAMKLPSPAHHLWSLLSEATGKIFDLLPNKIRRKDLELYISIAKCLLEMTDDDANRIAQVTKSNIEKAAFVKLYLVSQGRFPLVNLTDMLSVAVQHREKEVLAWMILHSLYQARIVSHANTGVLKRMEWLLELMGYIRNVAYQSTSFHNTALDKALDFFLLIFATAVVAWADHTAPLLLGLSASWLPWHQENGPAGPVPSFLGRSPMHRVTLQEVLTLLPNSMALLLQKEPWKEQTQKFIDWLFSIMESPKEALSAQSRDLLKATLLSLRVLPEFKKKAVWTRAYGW
UniProt Q15910, whole entry, looked up: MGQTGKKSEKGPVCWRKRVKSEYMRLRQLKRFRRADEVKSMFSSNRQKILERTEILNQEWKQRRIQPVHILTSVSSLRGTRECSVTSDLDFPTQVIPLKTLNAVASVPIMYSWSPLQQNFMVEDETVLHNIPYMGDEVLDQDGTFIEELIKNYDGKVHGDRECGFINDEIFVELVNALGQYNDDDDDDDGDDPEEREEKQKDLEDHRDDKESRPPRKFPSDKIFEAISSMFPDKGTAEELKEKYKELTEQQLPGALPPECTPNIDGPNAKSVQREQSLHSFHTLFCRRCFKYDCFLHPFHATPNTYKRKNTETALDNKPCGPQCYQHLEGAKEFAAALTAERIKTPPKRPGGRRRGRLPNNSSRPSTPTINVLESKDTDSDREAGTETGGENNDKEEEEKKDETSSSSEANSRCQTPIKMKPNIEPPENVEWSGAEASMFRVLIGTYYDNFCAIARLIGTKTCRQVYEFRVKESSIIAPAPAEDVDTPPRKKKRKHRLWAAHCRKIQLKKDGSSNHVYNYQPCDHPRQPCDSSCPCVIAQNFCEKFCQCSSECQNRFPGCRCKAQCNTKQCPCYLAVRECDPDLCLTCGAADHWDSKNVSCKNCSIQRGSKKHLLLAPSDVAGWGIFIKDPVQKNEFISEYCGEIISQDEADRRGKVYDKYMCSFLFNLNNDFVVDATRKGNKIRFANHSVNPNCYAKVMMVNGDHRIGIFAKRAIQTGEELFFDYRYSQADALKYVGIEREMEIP

Some of the results follow.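 The calls were made as follows: active = dose-dependent thermal stabilisation significant by F-test of dose-response against flat model at 10% FDR; inactive = not significant.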

Compound in this assay: Nc1nc2c(ncn2[C@@H]2O[C@H](COP(=O)(O)OP(=O)(O)OP(=O)(O)O)[C@@H](O)[C@H]2O)c(=O)[nH]1
The experiment in a line: dose-dependent thermal stabilisation call (2D-TPP, DLPTP, 10% FDR) (binary (1 = stabilised)); higher = stabilised by the compound. As to conditions: system: Jurkat gel-filtered lysate; concentration range 1-500 µM. The protocol: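 2D thermal proteome profiling in gel-filtered Jurkat E6.1 lysate (2 mg/ml) treated with NaGTP (0, 1, 10, 100, 500 uM) for 10 min at room temperature, then heated 3 min at one of 12 temperatures (42-63.9 C). Soluble protein was quantified by TMT10 MS. The value is the DLPTP call of the paper: dose-dependent thermal stabilisation over all temperatures at 10% FDR (F-test of a dose-response against a flat model); one experiment, one call per tested protein.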
EIPR1 (UniProt Q53HC9): the “dose-dependent thermal stabilisation call” value is inactive: 0.

For the target FAM53C (UniProt Q9NYF3), the “dose-dependent thermal stabilisation call” value is inactive: 0.

As for FBXO42 (UniProt Q6P3S6), the “dose-dependent thermal stabilisation call” value was inactive: 0.

For FANCI (UniProt Q9NVI1), the “dose-dependent thermal stabilisation call” value was inactive: 0.

Consider EIF3A (UniProt Q14152), for which the “dose-dependent thermal stabilisation call” value was inactive: 0.

As for EIF2S1 (UniProt P05198), the “dose-dependent thermal stabilisation call” value was active: 1.

As to FNIP1 (UniProt Q8TF40), the “dose-dependent thermal stabilisation call” value was inactive: 0.

As for FAHD2A (UniProt Q96GK7), the “dose-dependent thermal stabilisation call” value was inactive: 0.

On to FAM60A (UniProt Q9NP50), for which the “dose-dependent thermal stabilisation call” value is inactive: 0.

EIF3K (UniProt Q9UBQ5): the “dose-dependent thermal stabilisation call” value is active: 1.

Take ERCC6L (UniProt Q2NKX8): the “dose-dependent thermal stabilisation call” value was inactive: 0.

On to EIF2AK2 (UniProt P19525), for which the “dose-dependent thermal stabilisation call” value is inactive: 0.

On to EURL (UniProt Q9NYK6), for which the “dose-dependent thermal stabilisation call” value was inactive: 0.

EIF3C (UniProt Q99613): the “dose-dependent thermal stabilisation call” value was inactive: 0.

Turning to FDPS (UniProt P14324), the “dose-dependent thermal stabilisation call” value was inactive: 0.

In the case of EML3 (UniProt Q32P44), the “dose-dependent thermal stabilisation call” value is inactive: 0.

In the case of EWSR1 (UniProt Q01844), the “dose-dependent thermal stabilisation call” value was inactive: 0.

On to ELL (UniProt P55199), for which the “dose-dependent thermal stabilisation call” value was active: 1.

Regarding ELOB (UniProt Q15370), the “dose-dependent thermal stabilisation call” value was inactive: 0.

With FOXK1 (UniProt P85037), the “dose-dependent thermal stabilisation call” value was inactive: 0.

On to FHIT (UniProt P49789), for which the “dose-dependent thermal stabilisation call” value is inactive: 0.

ERAP1 (UniProt Q9NZ08): the “dose-dependent thermal stabilisation call” value is inactive: 0.

Turning to FBXL8 (UniProt Q96CD0), the “dose-dependent thermal stabilisation call” value was inactive: 0.

With FXR1 (UniProt P51114), the “dose-dependent thermal stabilisation call” value is active: 1.

On to FBXO7 (UniProt Q9Y3I1), for which the “dose-dependent thermal stabilisation call” value was inactive: 0.

As for FAM213B (UniProt Q8TBF2), the “dose-dependent thermal stabilisation call” value is inactive: 0.

With FUS (UniProt P35637), the “dose-dependent thermal stabilisation call” value is inactive: 0.

Regarding FNTA (UniProt P49354), the “dose-dependent thermal stabilisation call” value was inactive: 0.

As for ELMSAN1 (UniProt Q6PJG2), the “dose-dependent thermal stabilisation call” value is inactive: 0.

Regarding EIF3L (UniProt Q9Y262), the “dose-dependent thermal stabilisation call” value was inactive: 0.

For the target ERAP2 (UniProt Q6P179), the “dose-dependent thermal stabilisation call” value was inactive: 0.

Turning to FKBP1A (UniProt P62942), the “dose-dependent thermal stabilisation call” value is inactive: 0.

For the target EPS15L1 (UniProt Q9UBC2), the “dose-dependent thermal stabilisation call” value was inactive: 0.

As to FOCAD (UniProt Q5VW36), the “dose-dependent thermal stabilisation call” value was active: 1.

Consider EXOSC6 (UniProt Q5RKV6), for which the “dose-dependent thermal stabilisation call” value was inactive: 0.

For EZH2 (UniProt Q15910), the “dose-dependent thermal stabilisation call” value is inactive: 0.

For the target EXOSC9 (UniProt Q06265), the “dose-dependent thermal stabilisation call” value is inactive: 0.

Turning to EIF5B (UniProt O60841), the “dose-dependent thermal stabilisation call” value was active: 1.

As to EXOC6B (UniProt Q9Y2D4), the “dose-dependent thermal stabilisation call” value was inactive: 0.

Consider EIF2B1 (UniProt Q14232), for which the “dose-dependent thermal stabilisation call” value was inactive: 0.
